At least one compound was matched to its structure with a doubt left.
System: CoCl2-treated M14 cells
Assay: Cell viability of CoCl2-treated M14 cells with elesclomol and oxamate (FIG. 10, 11)
Type: cell-based
Conditions: 48 h incubation with or without elesclomol and oxamate
Experimental: By inhibiting LDH, the conversion of pyruvate to lactate is shut down, as illustrated in the left panel of FIG. 10. Oxamate, a pyruvate analog and LDH-A inhibitor, was tested on CoCl2-treated M14 cells as illustrated in the right panel of FIG. 10. Cell viability was assessed after 48 h incubation with or without elesclomol and oxamate.
Cell viability was assessed after 48 h incubation with or without 50 nM elesclomol in the presence or absence of 50 μM CoCl2 and 25 mM oxamate.

With `NC(=O)C(=O)O` [Oxamate, oxamate, reference compound] the “effect of LDH inhibitor on elesclomol activity (cell viability)” value was “restores the activity of elesclomol”.
